These are yes or no findings as the source states them, for the method shown. In cells and extracts the contact can be indirect. Some entries that bind do so weakly or less than the wild type.
Target: BECN1 (human (endogenous in MCF-7)) (UniProt Q14457)
Assay: co-IP; total protein of MCF-7 cells (300 ug), precipitated with antibodies to BECN1 (1:30) or BCL-2 (1:50) and protein A agarose at 4°C, Western blot; cells under normoxia, hypoxia (1% oxygen), or hypoxia with sh-BNIP3

Sequences of proteins named here, by UniProt entry; tags and fusion partners are left off.
UniProt Q14457: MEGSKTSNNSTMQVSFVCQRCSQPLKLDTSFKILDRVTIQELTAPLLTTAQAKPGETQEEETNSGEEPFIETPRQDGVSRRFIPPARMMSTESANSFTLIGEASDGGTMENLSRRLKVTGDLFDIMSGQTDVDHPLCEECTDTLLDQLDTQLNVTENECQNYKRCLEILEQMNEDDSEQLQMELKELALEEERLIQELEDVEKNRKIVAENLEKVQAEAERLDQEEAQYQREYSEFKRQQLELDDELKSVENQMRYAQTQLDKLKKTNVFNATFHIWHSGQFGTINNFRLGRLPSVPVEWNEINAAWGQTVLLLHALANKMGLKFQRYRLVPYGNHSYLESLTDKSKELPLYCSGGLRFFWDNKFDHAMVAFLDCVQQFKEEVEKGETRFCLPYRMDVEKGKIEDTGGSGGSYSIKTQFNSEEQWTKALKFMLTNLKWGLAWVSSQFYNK
UniProt P10415: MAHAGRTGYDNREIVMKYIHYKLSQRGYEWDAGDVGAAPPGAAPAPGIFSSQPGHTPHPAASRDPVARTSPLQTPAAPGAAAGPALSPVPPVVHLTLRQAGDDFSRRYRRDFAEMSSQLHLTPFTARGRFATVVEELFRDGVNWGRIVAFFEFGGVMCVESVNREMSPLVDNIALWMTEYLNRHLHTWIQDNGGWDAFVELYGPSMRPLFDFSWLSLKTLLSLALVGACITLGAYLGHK

- binding: binds
Substance: B-cell lymphoma-2 (BCL-2) (from UniProt P10415 1-239)
